From PubChem BioAssay AID256 (DTP/NCI, 2004)
The list shows only some results of the screen, not a fair sample: it is rich in T/C values a quarter to a half above the control, in often repeated tests (any T/C) and in doses without a T/C. Other doses and runs of a compound stand elsewhere. T/C gives the treated animals as a percentage of the vehicle group. Some entries give survivors of the animals treated and no T/C: the source holds a T/C of zero for them, seemingly a mark for toxic or unscored doses. Some doses without a T/C left all or most animals alive at the check, yet need not have been tolerated: survival well below the control is almost never listed, so the zero probably covers shortened survival too. Counts of survivors are from the toxicity check (mostly the fifth day) where no day follows; animals may have died later. Schedule codes are those of the source, taken here to give the interval after Q, in days (D) or hours (H), and the number of doses after X. Some schedules carry Z or #; the key to these is not given. For survival time, this PubChem deposit counts one and a half times the control or more as active, and values a quarter to a half above the control carry no call in these data; other NCI protocols may use other cut-offs. Some entries were tested several times; their values stand side by side, smallest first.

Test system: CD2F1 mice, L1210 leukemia ip, survival T/C
Test: NCI In Vivo Anticancer Drug Screen. Data for tumor model L1210 Leukemia (intraperitoneal) in CD2F1 (CDF1) mice
Settings: higher T/C = longer survival
Summary of the method: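 Antitumor effect is scored in animals hosting a serially transplanted tumor. Values compare compound-dosed animals against vehicle-only controls as a simple quotient.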

[1] = T/C endpoint: mean survival time, dose: 50.0 mg/kg/injection, schedule: Q04DX003 (ip), vehicle: saline with Tween-80
[2] = T/C endpoint: mean survival time, dose: 100.0 mg/kg/injection, schedule: Q04DX003 (ip), vehicle: saline with Tween-80
[3] = T/C endpoint: mean survival time, dose: 200.0 mg/kg/injection, schedule: Q04DX003 (ip), vehicle: saline with Tween-80
[4] = T/C endpoint: mean survival time, dose: 400.0 mg/kg/injection, schedule: Q04DX003 (ip), vehicle: saline with Tween-80
[5] = T/C endpoint: mean survival time, dose: 100.0 mg/kg/injection, schedule: Q01DX009 (ip), vehicle: saline with Tween-80
[6] = T/C endpoint: mean survival time, dose: 200.0 mg/kg/injection, schedule: Q01DX009 (ip), vehicle: saline with Tween-80

O=C(O)CC(CC(=O)O)C(=O)O.[NH-]C1CCCCC1[NH-].[Pt+2]
T/C (T/C endpoint: median survival time, dose: 200.0 mg/kg/injection, schedule: Q04DX003 (ip), vehicle: saline): 137 % of control

N#CCCc1ccccc1
survivor count [1]: 2 of 6
survivor count [2]: 3 of 6
survivor count [3]: 1 of 6

CN(C)[C@@H]1C(=O)C(C(=O)NCN2CCN(C(=N)N=C(N)N)CC2)=C(O)[C@@]2(O)C(=O)C3=C(O)c4c(O)cccc4[C@@](C)(O)[C@H]3C[C@@H]12
survivor count (T/C endpoint: mean survival time, dose: 2.5 mg/kg/injection, schedule: Q01DX001 (ip), vehicle: saline): 5 of 6
survivor count (T/C endpoint: mean survival time, dose: 5.0 mg/kg/injection, schedule: Q01DX001 (ip), vehicle: saline): 2 of 6
survivor count (T/C endpoint: mean survival time, dose: 75.0 mg/kg/injection, schedule: Q01DX001 (ip), vehicle: saline): 0 of 6
survivor count (T/C endpoint: mean survival time, dose: 150.0 mg/kg/injection, schedule: Q01DX001 (ip), vehicle: saline): 0 of 6
survivor count (T/C endpoint: mean survival time, dose: 300.0 mg/kg/injection, schedule: Q01DX001 (ip), vehicle: saline): 0 of 6

O/N=C(\c1ccccc1)C1C(/C(=N/O)c2ccccc2)C1c1ccccc1 (stereo unspecified)
survivor count (T/C endpoint: mean survival time, dose: 200.0 mg/kg/injection, schedule: Q04DX002 (ip), vehicle: saline with Tween-80): 3 of 3

CC1(C)C2CCC1(CS(=O)(=O)O)C(=O)C2.[Ag] (stereo unspecified)
survivor count (T/C endpoint: mean survival time, dose: 200.0 mg/kg/injection, schedule: Q04DX003 (ip), vehicle: acetone): 2 of 6
survivor count (T/C endpoint: mean survival time, dose: 400.0 mg/kg/injection, schedule: Q04DX003 (ip), vehicle: acetone): 0 of 6

c1cc(C[N+]23CN4CN(CN(C4)C2)C3)cs1
survivor count [3]: 4 of 6
survivor count [4]: 0 of 6

O=C1C=C(N2CC2)C(=O)C=C1N1CC1
T/C (T/C endpoint: mean survival time, dose: 0.12 mg/kg/injection, schedule: Q01DX Z (ip), vehicle: saline): 135 % of control
T/C (T/C endpoint: mean survival time, dose: 0.25 mg/kg/injection, schedule: Q01DX Z (ip), vehicle: saline): 130 and 135 % of control
T/C (T/C endpoint: mean survival time, dose: 0.5 mg/kg/injection, schedule: Q01DX Z (ip), vehicle: saline): 135 and 138 % of control
survivor count (T/C endpoint: mean survival time, dose: 1.0 mg/kg/injection, schedule: Q01DX Z (ip), vehicle: saline): 6 of 6
survivor count (T/C endpoint: mean survival time, dose: 2.0 mg/kg/injection, schedule: Q01DX Z (ip), vehicle: saline): 4 of 6

CCCCCCCCCCCCCCCC(=O)N(CCCCN(CCCN(C)C)C(=O)CCCCCCCCCCCCCCC)CCCN(C)C
survivor count [5]: 0 of 6

CC(NC(=O)C(C)(Br)C1CCCCC1)c1ccccc1 (stereo unspecified)
survivor count (T/C endpoint: mean survival time, dose: 400.0 mg/kg/injection, schedule: Q01DX001 (ip), vehicle: saline with Tween-80): 3 of 3

OC1CC2CC1C1C3C=CC(C3)C21 (stereo unspecified)
survivor count (T/C endpoint: mean survival time, dose: 50.0 mg/kg/injection, schedule: Q01DX009 (ip), vehicle: saline with Tween-80): 2 of 3
survivor count [5]: 0 of 3
survivor count [6]: 0 of 3

CC(C)(C)C1=CC(C(C)(C)C)CCC1=O (stereo unspecified)
survivor count (T/C endpoint: mean survival time, dose: 400.0 mg/kg/injection, schedule: Q01DX009 (ip), vehicle: acetone): 2 of 6

O=C(CC(CC(=O)C(c1ccccc1)c1ccccc1)c1ccccc1)C(c1ccccc1)c1ccccc1
survivor count (T/C endpoint: mean survival time, dose: 50.0 mg/kg/injection, schedule: Q04DX002 (ip), vehicle: saline with Tween-80): 3 of 3
survivor count [2]: 6 of 6

CCCCNCCO
survivor count (T/C endpoint: mean survival time, dose: 200.0 mg/kg/injection, schedule: Q01DX001 (ip), vehicle: saline): 2 of 4
survivor count (T/C endpoint: mean survival time, dose: 400.0 mg/kg/injection, schedule: Q01DX001 (ip), vehicle: saline): 0 of 4

CCN(CC)CCC(=O)c1ccccc1
survivor count (T/C endpoint: mean survival time, dose: 100.0 mg/kg/injection, schedule: Q01DX009 (ip), vehicle: suspension in saline): 1 of 6

COc1ccc2c(c1)N(CC(C)C[N+](C)(C)CCCCCCCCCCCCCCCC[N+](C)(C)CC(C)CN1c3ccccc3Sc3ccc(OC)cc31)c1ccccc1S2 (stereo unspecified)
survivor count (T/C endpoint: mean survival time, dose: 400.0 mg/kg/injection, schedule: Q04DX003 (ip), vehicle: saline): 6 of 6

CC[C@@]1(OC(=O)CN2CCNCC2)C(=O)OCc2c1cc1n(c2=O)Cc2cc3ccccc3nc2-1
T/C (T/C endpoint: median survival time, dose: 12.5 mg/kg/injection, schedule: Q04DX002 (ip), vehicle: water): 125 % of control
T/C (T/C endpoint: median survival time, dose: 25.0 mg/kg/injection, schedule: Q04DX002 (ip), vehicle: water): 131 and 142 % of control

[Cl][Pt+2][Cl].[NH-]C1CC1.[NH2-]
T/C (T/C endpoint: mean survival time, dose: 3.12 mg/kg/injection, schedule: Q04DX003 (ip), vehicle: saline): 132 and 147 % of control
survivor count (T/C endpoint: mean survival time, dose: 6.25 mg/kg/injection, schedule: Q04DX003 (ip), vehicle: saline with Tween-80): 3 of 6
T/C (T/C endpoint: mean survival time, dose: 6.25 mg/kg/injection, schedule: Q04DX003 (ip), vehicle: saline): 148 % of control
survivor count (T/C endpoint: mean survival time, dose: 12.5 mg/kg/injection, schedule: Q04DX003 (ip), vehicle: saline with Tween-80): 4 of 6
survivor count (T/C endpoint: mean survival time, dose: 25.0 mg/kg/injection, schedule: Q04DX003 (ip), vehicle: saline with Tween-80): 2 of 6
survivor count [1]: 2 of 6
survivor count [2]: 1 of 6
survivor count [3]: 1 of 6

N=c1c2c(C(N)=O)cn(C3OC(CO)C(O)C3O)c2ncn1N (stereo unspecified)
T/C (T/C endpoint: mean survival time, dose: 33.3 mg/kg/injection, schedule: Q01DX005 (ip), vehicle: water): 138 % of control
T/C (T/C endpoint: mean survival time, dose: 50.0 mg/kg/injection, schedule: Q01DX005 (ip), vehicle: water): 128 and 142 % of control
T/C (T/C endpoint: mean survival time, dose: 75.0 mg/kg/injection, schedule: Q01DX005 (ip), vehicle: water): 126 % of control
survivor count (T/C endpoint: mean survival time, dose: 200.0 mg/kg/injection, schedule: Q01DX005 (ip), vehicle: water): 0 of 6

Cc1cc(NCCCCCCNc2cc(C)[n+](C)c3c(Cl)cccc23)c2cccc(Cl)c2[n+]1C
survivor count (T/C endpoint: mean survival time, dose: 50.0 mg/kg/injection, schedule: Q01DX009 (ip), vehicle: Klucel (hydroxypropylcellulose) (HPC)): 0 of 3
survivor count (T/C endpoint: mean survival time, dose: 100.0 mg/kg/injection, schedule: Q01DX009 (ip), vehicle: Klucel (hydroxypropylcellulose) (HPC)): 0 of 3
survivor count (T/C endpoint: mean survival time, dose: 200.0 mg/kg/injection, schedule: Q01DX009 (ip), vehicle: Klucel (hydroxypropylcellulose) (HPC)): 0 of 3

N#CC(c1ccccc1)C(CC(=O)c1ccccc1)c1ccccc1 (stereo unspecified)
survivor count (T/C endpoint: mean survival time, dose: 400.0 mg/kg/injection, schedule: Q01DX009 (ip), vehicle: saline with Tween-80): 6 of 6

Cc1ncnc2c1ncn2C1OC(CO)C(O)C1O (stereo unspecified)
T/C (T/C endpoint: mean survival time, dose: 2.0 mg/kg/injection, schedule: Q01DX005 (ip), vehicle: saline): 125 % of control
survivor count (T/C endpoint: mean survival time, dose: 8.0 mg/kg/injection, schedule: Q01DX005 (ip), vehicle: saline): 4 of 6

C=C(C)CC1(CC)C(=O)NC(=S)NC1=O
survivor count [6]: 1 of 6

Cc1ccc([N+](=O)[O-])cc1NC(=O)NNC(=O)CNC(=O)Nc1ccc(F)cc1
survivor count [5]: 6 of 6

COc1cc2c(c(OC)c1OC)-c1ccc(OC)c(=O)cc1[C@@H](NC=O)CC2
survivor count (T/C endpoint: mean survival time, dose: 6.25 mg/kg/injection, schedule: Q04DX003 (ip), vehicle: Klucel (hydroxypropylcellulose) (HPC)): 3 of 6
survivor count (T/C endpoint: mean survival time, dose: 12.5 mg/kg/injection, schedule: Q04DX003 (ip), vehicle: Klucel (hydroxypropylcellulose) (HPC)): 2 of 6
survivor count (T/C endpoint: mean survival time, dose: 25.0 mg/kg/injection, schedule: Q04DX003 (ip), vehicle: Klucel (hydroxypropylcellulose) (HPC)): 0 of 6

c1ccc(CCC[P+](c2ccccc2)(c2ccccc2)c2ccccc2)cc1
survivor count (T/C endpoint: mean survival time, dose: 20.0 mg/kg/injection, schedule: Q01DX009 (ip), vehicle: saline with Tween-80): 0 of 6
survivor count (T/C endpoint: mean survival time, dose: 40.0 mg/kg/injection, schedule: Q01DX009 (ip), vehicle: saline with Tween-80): 0 of 6
survivor count (T/C endpoint: mean survival time, dose: 80.0 mg/kg/injection, schedule: Q01DX009 (ip), vehicle: saline with Tween-80): 0 of 6

COc1ccc(C[C@H](N)C(=O)NC2C(CO)OC(n3cnc4c(N(C)C)ncnc43)C2O)cc1 (stereo partly specified)
survivor count (T/C endpoint: median survival time, dose: 200.0 mg/kg/injection, schedule: Q01DX005 (ip), vehicle: water): 6 of 6

COc1ccc([Se][Se]c2ccc(OC)cc2NC(C)=O)c(NC(C)=O)c1
survivor count [4]: 6 of 6
